Results are given in words; binding and its absence hold for the method and conditions named. Binding seen in cells or lysates may run through a third protein. Some results given as binding are weak or reduced against the parent protein; the word gives no strength.
What was measured:
[1] = target: Transcription factor Sp1 (mouse (endogenous in PARP-1+/+ embryonic fibroblasts)) (UniProt O89090); experiment: co-IP; as the Sp1 Ab precipitation from nuclear extract of PARP-1+/+ cells, with 100 ug/ml ethidium bromide in the reaction mixture to exclude bridging by DNA
[2] = target: Transcription factor Sp1 (mouse (endogenous in PARP-1+/+ embryonic fibroblasts)) (UniProt O89090); experiment: co-IP; Sp1 precipitated with Sp1 Ab (sc-59) and protein A-Sepharose from about 300 ug nuclear extract of PARP-1+/+ cells, overnight at 4°C, binding buffer (10 mM Tris-HCl, 20 mM MgCl2, 150 mM NaCl, 1 mM DTT, 10% glycerol, 1 mM PMSF); blot with PARP-1 Ab C-2-10; also with cells grown with H2O2 or PJ34 (interaction not altered)

Chains of the proteins cited; added tags and fusions are not shown.
UniProt O89090: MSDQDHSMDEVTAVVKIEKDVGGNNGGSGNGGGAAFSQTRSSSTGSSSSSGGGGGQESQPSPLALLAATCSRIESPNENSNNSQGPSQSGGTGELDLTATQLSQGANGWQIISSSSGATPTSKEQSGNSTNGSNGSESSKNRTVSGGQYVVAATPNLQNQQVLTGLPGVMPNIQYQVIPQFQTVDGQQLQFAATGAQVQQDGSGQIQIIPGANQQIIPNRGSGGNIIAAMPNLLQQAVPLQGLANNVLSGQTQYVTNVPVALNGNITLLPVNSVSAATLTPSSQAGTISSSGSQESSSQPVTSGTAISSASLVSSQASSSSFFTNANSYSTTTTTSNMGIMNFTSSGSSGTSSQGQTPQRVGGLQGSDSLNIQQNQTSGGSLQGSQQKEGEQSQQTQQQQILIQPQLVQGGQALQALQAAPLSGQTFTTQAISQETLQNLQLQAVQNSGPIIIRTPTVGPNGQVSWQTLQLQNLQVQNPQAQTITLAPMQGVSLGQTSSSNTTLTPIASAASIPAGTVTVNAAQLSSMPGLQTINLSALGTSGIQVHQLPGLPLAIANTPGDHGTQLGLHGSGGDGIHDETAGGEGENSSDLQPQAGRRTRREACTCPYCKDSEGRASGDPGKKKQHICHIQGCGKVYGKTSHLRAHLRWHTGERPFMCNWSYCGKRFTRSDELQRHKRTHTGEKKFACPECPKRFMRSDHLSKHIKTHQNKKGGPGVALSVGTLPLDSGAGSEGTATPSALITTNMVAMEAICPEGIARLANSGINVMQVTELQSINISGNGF
UniProt P11103: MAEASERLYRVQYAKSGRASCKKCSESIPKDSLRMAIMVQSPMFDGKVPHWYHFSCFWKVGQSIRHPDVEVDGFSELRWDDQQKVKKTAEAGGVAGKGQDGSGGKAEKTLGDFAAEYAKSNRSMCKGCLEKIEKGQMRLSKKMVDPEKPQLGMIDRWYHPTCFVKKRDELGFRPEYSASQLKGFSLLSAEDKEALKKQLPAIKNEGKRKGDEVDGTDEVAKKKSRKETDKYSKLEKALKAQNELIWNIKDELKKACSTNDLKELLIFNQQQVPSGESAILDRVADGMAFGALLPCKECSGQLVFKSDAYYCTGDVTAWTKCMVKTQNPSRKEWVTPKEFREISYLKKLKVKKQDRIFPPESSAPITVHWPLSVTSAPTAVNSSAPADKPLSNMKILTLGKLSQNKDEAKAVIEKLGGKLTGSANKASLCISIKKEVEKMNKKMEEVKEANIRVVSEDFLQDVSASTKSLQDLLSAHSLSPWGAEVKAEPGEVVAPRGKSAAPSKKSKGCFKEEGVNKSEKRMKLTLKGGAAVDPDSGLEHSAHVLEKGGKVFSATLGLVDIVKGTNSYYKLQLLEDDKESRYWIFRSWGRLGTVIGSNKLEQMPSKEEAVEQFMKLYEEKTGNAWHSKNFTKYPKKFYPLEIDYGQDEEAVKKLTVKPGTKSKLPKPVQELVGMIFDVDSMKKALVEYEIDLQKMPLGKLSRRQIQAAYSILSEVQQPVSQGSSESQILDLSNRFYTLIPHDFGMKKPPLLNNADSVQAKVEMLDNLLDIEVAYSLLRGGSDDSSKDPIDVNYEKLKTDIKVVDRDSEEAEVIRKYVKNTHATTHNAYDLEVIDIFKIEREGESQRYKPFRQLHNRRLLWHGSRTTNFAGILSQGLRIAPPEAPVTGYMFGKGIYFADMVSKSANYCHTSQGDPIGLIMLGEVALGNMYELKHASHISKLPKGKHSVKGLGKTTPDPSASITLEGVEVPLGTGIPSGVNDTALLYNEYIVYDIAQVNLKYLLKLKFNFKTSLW

binding [1]: binds | binding [2]: binds
Substance: Poly(ADP-ribose) polymerase-1 (PARP-1) (from UniProt P11103 1-1013) (enzyme)

From PMC2175517
